Data as given in patent US20060159681A1.
Positions count from the first letter of the chain named. No constants are given. Whether binding was seen depends on the method and setting. In cells and extracts the contact can be indirect. Some entries that bind do so weakly or less than the wild type. For some of these results: Tags and fused reporters may be left off the sequences shown. Values belong to the binder of their own block, whether it stands above or below them.

Chains of the proteins cited; added tags and fusions are not shown. Lines headed by an entry give the natural chain unless they say otherwise; changes in a name come on top. Residues count along the entry.
UniProt P0DMV8: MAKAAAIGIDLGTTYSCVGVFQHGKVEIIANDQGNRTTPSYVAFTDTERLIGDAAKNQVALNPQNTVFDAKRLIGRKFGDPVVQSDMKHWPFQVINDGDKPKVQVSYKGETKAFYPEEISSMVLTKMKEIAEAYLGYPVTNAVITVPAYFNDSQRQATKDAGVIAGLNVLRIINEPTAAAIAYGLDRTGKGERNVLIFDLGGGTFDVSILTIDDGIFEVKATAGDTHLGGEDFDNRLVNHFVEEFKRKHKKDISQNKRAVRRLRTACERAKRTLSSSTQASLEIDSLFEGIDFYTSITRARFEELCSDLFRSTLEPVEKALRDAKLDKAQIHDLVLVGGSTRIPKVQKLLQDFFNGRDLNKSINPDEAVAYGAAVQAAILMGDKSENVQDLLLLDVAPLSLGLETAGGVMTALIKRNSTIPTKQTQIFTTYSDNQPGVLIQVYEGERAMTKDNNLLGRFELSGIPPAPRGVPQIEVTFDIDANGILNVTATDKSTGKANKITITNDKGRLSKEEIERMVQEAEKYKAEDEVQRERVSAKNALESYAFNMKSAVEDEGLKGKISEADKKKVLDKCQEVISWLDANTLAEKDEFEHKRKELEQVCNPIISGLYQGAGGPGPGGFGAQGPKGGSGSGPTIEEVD
endogenous Hsp70 in human brain lysate: residues 2-641 of P0DMV8
UniProt O60260: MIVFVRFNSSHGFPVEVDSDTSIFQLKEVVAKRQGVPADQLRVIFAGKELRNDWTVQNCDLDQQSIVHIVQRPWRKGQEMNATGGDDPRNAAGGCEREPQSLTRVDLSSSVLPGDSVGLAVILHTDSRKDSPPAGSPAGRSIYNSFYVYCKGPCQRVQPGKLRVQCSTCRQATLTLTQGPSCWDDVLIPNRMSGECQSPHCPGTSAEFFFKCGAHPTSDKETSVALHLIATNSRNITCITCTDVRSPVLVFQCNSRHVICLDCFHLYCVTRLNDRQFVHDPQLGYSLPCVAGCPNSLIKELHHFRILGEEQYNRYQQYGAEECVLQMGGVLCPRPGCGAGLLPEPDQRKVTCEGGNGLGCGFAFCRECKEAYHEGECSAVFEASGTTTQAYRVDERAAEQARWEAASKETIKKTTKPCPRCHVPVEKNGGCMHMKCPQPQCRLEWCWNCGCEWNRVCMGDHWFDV

Legend:
[1] = target: T1, GFP-BAG5(DARA) (Homo sapiens (Human)) (UniProt Q9UL15); assay: GST pull-down from transfected HEK293T cell lysates
T1 sequence: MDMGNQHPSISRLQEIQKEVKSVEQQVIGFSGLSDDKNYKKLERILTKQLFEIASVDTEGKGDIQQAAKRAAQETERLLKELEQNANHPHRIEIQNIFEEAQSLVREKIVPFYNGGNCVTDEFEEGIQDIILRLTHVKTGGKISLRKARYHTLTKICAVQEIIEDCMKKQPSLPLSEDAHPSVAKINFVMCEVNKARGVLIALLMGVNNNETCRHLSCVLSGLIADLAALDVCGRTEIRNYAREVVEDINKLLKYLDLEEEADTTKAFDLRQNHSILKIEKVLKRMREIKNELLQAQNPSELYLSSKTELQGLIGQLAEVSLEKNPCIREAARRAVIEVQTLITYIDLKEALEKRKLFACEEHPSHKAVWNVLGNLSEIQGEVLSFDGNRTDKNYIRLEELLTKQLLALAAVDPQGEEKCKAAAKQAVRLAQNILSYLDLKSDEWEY

Hsp70 [2] = target: Hsp70 (UniProt P0DMV8); assay: as above
GFP-BAG5 (human) = target: T2, GFP-BAG5 (human) (UniProt Q9UL15); assay: as above
T2 sequence: T1 sequence with A54D, A68R, A228D, A242R, A318D, A332R, A410D, A424R

[3] = target: endogenous Hsp70 in human brain lysate (human) (UniProt P0DMV8); assay: GST pull-down from human brain SNpc lysate
His-parkin (human) [4] = target: His-parkin (human) (UniProt O60260); assay: in vitro GST pull-down (FIG. 4B)
His-parkin (human) [5] = target: His-parkin (human) (UniProt O60260); assay: in vitro GST pull-down with recombinant His-parkin
His-Hsp70 (human) [6] = target: His-Hsp70 (human) (UniProt P0DMV8); assay: in vitro GST pull-down with His-Hsp70
GFP-parkin (human) [7] = target: GFP-parkin (human) (UniProt O60260); assay: co-immunoprecipitation from transfected HEK293T lysates (FIG. 4A)
His-Hsp70 (human) [8] = target: His-Hsp70 (human) (UniProt P0DMV8); assay: as above
Hsp70 [9] = target: Hsp70 (UniProt P0DMV8); assay: co-immunoprecipitation from transfected HEK293T lysate
Hsp70 [10] = target: Hsp70 (UniProt P0DMV8); assay: co-immunoprecipitation from transfected HEK293T lysate (FIG. 3E)
GFP-parkin (human) [11] = target: GFP-parkin (human) (UniProt O60260); assay: co-immunoprecipitation from transfected HEK293T cells, with and also without overexpressed Hsp70
FLAG-BAG5 (human) [12] = target: T3, FLAG-BAG5 (human) (UniProt Q9UL15); assay: co-immunoprecipitation from transfected HEK293T lysate
T3 sequence: T1 sequence with A54D, A68R, A228D, A242R, A318D, A332R, A410D, A424R

[13] = target: T4, FLAG-BAG5(DARA) (Homo sapiens (Human)) (UniProt Q9UL15); assay: as above
T4 sequence: T1 sequence

FLAG-BAG5 (human) [14] = target: T3, FLAG-BAG5 (human); assay: co-immunoprecipitation from transfected HEK293T lysate (FIG. 3E)
[15] = target: endogenous Hsp70 in human brain lysate (human) (UniProt P0DMV8); assay: co-immunoprecipitation from human brain lysate (FIG. 3C)
[16] = target: endogenous Hsp70 in human brain lysate (human) (UniProt P0DMV8); assay: co-immunoprecipitation from human brain lysate

binding [1]: binds
binding (Hsp70 [2]): binds
binding (GFP-BAG5 (human)): binds
binding [3]: binds
binding (His-parkin (human) [4]): binds
binding (His-parkin (human) [5]): binds
binding (His-Hsp70 (human) [6]): binds
B1: GST-BAG5 (protein, not shown: a dimerising Fc or GST)
chain: T1 sequence with A54D, A68R, A228D, A242R, A318D, A332R, A410D, A424R

binding (FLAG-BAG5 (human) [12]): binds
binding [13]: binds
B5: GFP-BAG5(DARA) (protein, not shown: large carriers)
chain: T1 sequence

binding [1]: binds
binding (GFP-BAG5 (human)): binds
binding (His-parkin (human) [4]): binds
binding (His-parkin (human) [5]): binds
B6: GST-BAG5(DARA) (protein, not shown: a dimerising Fc or GST; large carriers; small tags and cut ends)
chain: T1 sequence

binding [15]: binds
binding [16]: binds
B7: endogenous BAG5 in human brain lysate (protein)
chain: T1 sequence with A54D, A68R, A228D, A242R, A318D, A332R, A410D, A424R

binding (His-Hsp70 (human) [6]): binds
B8: GST-BAG1 (protein, human, UniProt Q99933-4 1-230, looked up, not shown: a dimerising Fc or GST)
chain: MNRSQEVTRDEESTRSEEVTREEMAAAGLTVTVTHSNEKHDLHVTSQQGSSEPVVQDLAQVVEEVIGVPQSFQKLIFKGKSLKEMETPLSALGIQDGCRVMLIGKKNSPQEEVELKKLKHLEKSVEKIADQLEELNKELTGIQQGFLPKDLQAEALCKLDRRVKATIEQFMKILEEIDTLILPENFKDSRLKRKGLVKKVQAFLAECDTVEQNICQETERLQSTNFALAE

Second part, the binder before the results:

B2: FLAG-BAG5 (protein, not shown: small tags and cut ends)
chain: T1 sequence with A54D, A68R, A228D, A242R, A318D, A332R, A410D, A424R
binding (GFP-parkin (human) [7]): binds
binding (His-Hsp70 (human) [8]): binds
binding (Hsp70 [9]): binds
binding (Hsp70 [10]): binds
binding (GFP-parkin (human) [11]): binds

B3: FLAG-BAG5(DARA) (protein, not shown: small tags and cut ends)
chain: T1 sequence
binding (GFP-parkin (human) [11]): binds

B4: GFP-BAG5 (protein, not shown: large carriers)
chain: T1 sequence with A54D, A68R, A228D, A242R, A318D, A332R, A410D, A424R
binding (FLAG-BAG5 (human) [12]): binds
binding [13]: binds
binding (FLAG-BAG5 (human) [14]): binds
